{
  "sequences": {"note": "The chains behind the UniProt entries cited, without tags or fusion partners. Where a name states a change or a piece, a line headed by the entry shows the natural chain unless it says otherwise.", "UniProt P18054": "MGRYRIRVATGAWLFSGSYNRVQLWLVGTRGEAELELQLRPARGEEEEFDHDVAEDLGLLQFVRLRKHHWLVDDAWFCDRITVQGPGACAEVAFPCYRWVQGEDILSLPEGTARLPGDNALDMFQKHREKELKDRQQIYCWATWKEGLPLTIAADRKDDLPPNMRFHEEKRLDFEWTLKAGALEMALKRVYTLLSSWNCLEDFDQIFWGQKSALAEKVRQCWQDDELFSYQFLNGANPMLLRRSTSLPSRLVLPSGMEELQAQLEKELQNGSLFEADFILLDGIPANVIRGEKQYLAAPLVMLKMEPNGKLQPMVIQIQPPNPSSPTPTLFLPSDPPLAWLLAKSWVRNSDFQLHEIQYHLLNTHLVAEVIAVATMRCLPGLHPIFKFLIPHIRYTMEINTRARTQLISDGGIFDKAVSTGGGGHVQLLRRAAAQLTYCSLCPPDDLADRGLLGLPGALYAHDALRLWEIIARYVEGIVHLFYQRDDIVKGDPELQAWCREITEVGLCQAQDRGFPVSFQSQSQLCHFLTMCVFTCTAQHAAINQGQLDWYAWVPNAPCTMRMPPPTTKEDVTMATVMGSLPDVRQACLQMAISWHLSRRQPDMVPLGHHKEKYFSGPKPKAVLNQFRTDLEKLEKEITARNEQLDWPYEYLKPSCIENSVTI"},
  "source": "PubChem BioAssay AID1671190",
  "about": "(National Center for Advancing Translational Sciences (NCATS), 2021)",
  "note": "The whole screen tested about 580,000 compounds, of which about 6,100 (1.1%) were called active. Inconclusive results, whose numbers are uncertain, are shown with a selection of clear calls. Calls follow the shape of the dose curve; as a rule, active = well fitted inhibition curve with a large enough effect; inconclusive = small, poorly fitted or top-dose-only effect, or another doubt; inactive = no such curve, though single readings can be large or run the other way. Where the call is inconclusive, the potency comes from a doubtful curve fit. % is scaled to controls: 0 for no effect and ±100 for the full control effect; potency is read from the fitted curve at half-maximal effect.",
  "data": [
    {"target": "Polyunsaturated fatty acid lipoxygenase ALOX12 (Homo sapiens) (UniProt P18054)", "test": "Primary qHTS assay for inhibitors of human arachidonate 12S-lipoxygenase (ALOX12): Round 2", "conditions": "purified 12hLO, xylenol orange hydroperoxide absorbance; activity change, negative = inhibition: at 108 µM (top of the series) unless noted", "summary_of_the_method": "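Purified human 12hLO (150 nM final) in 25 mM Hepes, 0.01% Triton X-100, pH 7.0 was preincubated 15 min at room temperature with compound. Then 40 uM arachidonic acid was added, 30 min. Hydroperoxide was read by Fe-XO absorbance ratio 573/405 nm.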", "values": [
      {"smiles": "O=C(COc1ccc(F)cc1)NC1CCCN(c2ncccn2)C1", "note": "(stereo not given)", "Potency": "inconclusive: 100 µM [inhibitor, single point]"},
      {"smiles": "O=c1c2c(CO)c(-c3ccc(F)cc3)nn2ccn1Cc1ccc(OC(F)(F)F)cc1", "activity change, negative = inhibition": "inactive: -2.02%"},
      {"smiles": "Cc1cccc(C)c1NC(=O)Cn1nnc(-c2ccc(CN3CCC(C)CC3)cc2)n1", "activity change, negative = inhibition": "inactive: 16.9%"},
      {"smiles": "CCOC(=O)c1cc(NC(=O)SCC(=O)O)c(C)nc1C", "Potency": "inconclusive: 39.8 µM [inhibitor, partial curve, poor fit]"},
      {"smiles": "Cc1cccc(N2Cc3c(NCCCOC(C)C)ncnc3N(C)CC2=O)c1", "Potency": "inconclusive: 89.1 µM [inhibitor, single point]"},
      {"smiles": "Cc1ccc(NC(=O)c2cccc(S(=O)(=O)N3CCCC3)c2)nc1", "Potency": "inconclusive: 3.98 µM [inhibitor, full curve, poor fit]"},
      {"smiles": "COc1ccc(-c2c3c(=O)n(C)c(=O)n(C)c3cn2-c2cccc(C)c2)cc1", "Potency": "inconclusive: 35.5 µM [inhibitor, partial curve, poor fit]"},
      {"smiles": "O=C(c1cnccn1)N1CCN(S(=O)(=O)c2cccc(Cl)c2)CC1", "Potency": "inconclusive: 141 µM [inhibitor, partial curve, poor fit]"},
      {"smiles": "CCC(=O)Nc1ccc2c(c1)nc(CCN1CCC(C)CC1)n2C", "activity change, negative = inhibition": "inactive: 0.888%"},
      {"smiles": "CC(C)C(CNC(=O)c1nn(C)c(=O)c2ccccc12)N1CCCC1", "note": "(stereo not given)", "activity change, negative = inhibition": "inactive: 36.1%"},
      {"smiles": "O=C(N/N=C1/CCSC1)C1CCCCC1", "Potency": "inconclusive: 35.5 µM [inhibitor, single point]"},
      {"smiles": "Cc1ccc(NC(=O)Cn2c(=O)n(Cc3ccccc3)c(=O)c3c(C)c(C)sc32)c(C)c1", "activity change, negative = inhibition": "inconclusive: -35.2% [inhibitor]"},
      {"smiles": "COc1cc2c(cc1Cl)/C(=C\\CCN(C)C)c1ccccc1S2", "Potency": "inconclusive: 44.7 µM [inhibitor, partial curve, poor fit]"},
      {"smiles": "CCC(Cc1ccccc1)NC(=O)c1ccc2nc(N3CCC(C)CC3)sc2c1", "note": "(stereo not given)", "activity change, negative = inhibition": "inactive: 0%"},
      {"smiles": "O=C(NCCN1CCOCC1)c1cc2nc(-c3cccs3)cc(C(F)(F)F)n2n1", "Potency": "inconclusive: 3.55 µM [inhibitor, full curve, poor fit]"},
      {"smiles": "CCOC(=O)c1c(C)oc2c1cc(NS(=O)(=O)c1ccc(C(=O)O)cc1)c1ccccc12", "Potency": "inconclusive: 44.7 µM [inhibitor, partial curve, poor fit]"},
      {"smiles": "CCOC(=O)C1CCN(CC(O)COCc2ccccc2)CC1", "note": "(stereo not given)", "Potency": "inconclusive: 0.891 µM [inhibitor, full curve, poor fit]"},
      {"smiles": "COc1ccc2nc(SCC(C)=O)c(C#N)cc2c1", "Potency": "inconclusive: 50.1 µM [inhibitor, partial curve, poor fit]"},
      {"smiles": "CCc1ccc(N(C(=O)c2csnn2)C(C(=O)NC2CCCCC2)c2ccncc2)cc1", "note": "(stereo not given)", "Potency": "inconclusive: 1 µM [inhibitor, full curve, poor fit]"},
      {"smiles": "Cc1ccccc1-c1nnc(SCc2cn3cccc(C)c3n2)o1", "Potency": "inconclusive: 0.251 µM [inhibitor, full curve, poor fit]"},
      {"smiles": "CNCCN1C(=O)CC[C@H]2CN(C(=O)c3ccc(Cl)cn3)CC[C@H]21", "Potency": "inconclusive: 4.47 µM [inhibitor, partial curve]"},
      {"smiles": "CCCCN(C(=S)Nc1cccc(Cl)c1)C1CCN(C(C)=O)CC1", "activity change, negative = inhibition": "inactive: -25.5%"},
      {"smiles": "CC(C)(C)C1CCC(=NNC(=S)NCc2ccccc2)CC1", "note": "(stereo not given)", "Potency": "inconclusive: 50.1 µM [inhibitor, partial curve, poor fit]"},
      {"smiles": "COc1cc2c(cc1OC)-c1cc(NCc3ccccn3)nc(=O)n1CC2", "Potency": "active: 7.94 µM"},
      {"smiles": "CCN(Cc1cc2cc(C)ccc2[nH]c1=O)C(=O)c1ccc(C)cc1", "Potency": "inconclusive: 25.1 µM [inhibitor, partial curve]"},
      {"smiles": "COc1ccc2[nH]cc(CCNc3nc(-c4ccoc4)nc4ccccc34)c2c1", "Potency": "inconclusive: 8.91 µM [inhibitor, full curve]"},
      {"smiles": "O=C(NC1CCCCCC1)c1[nH]c2ccccc2c1Cl", "activity change, negative = inhibition": "inactive: 42.4%"},
      {"smiles": "O=C(CN1C(=O)COc2ccc(S(=O)(=O)N3CCCCC3)cc21)NCc1ccc(F)cc1", "Potency": "inconclusive: 141 µM [inhibitor, partial curve, poor fit]"},
      {"smiles": "COc1cc(/C=C2/SC(=S)N(CC(=O)O)C2=O)ccc1OC(=O)c1cccs1", "Potency": "inconclusive: 39.8 µM [inhibitor, partial curve, poor fit]"},
      {"smiles": "Cc1ccc(N2C(S)=C(C#N)C(=O)NC2c2cccs2)cc1", "note": "(stereo not given)", "Potency": "inconclusive: 39.8 µM [inhibitor, partial curve, poor fit]"},
      {"smiles": "Cc1cc(Cl)ccc1OC(=O)/C(C#N)=C/c1ccc(Cl)cc1", "Potency": "inconclusive: 28.2 µM [inhibitor, partial curve, poor fit]"},
      {"smiles": "O=C(COC(=O)c1ccc2c(c1)OCCO2)Nc1cc(Cl)ccc1Cl", "Potency": "inconclusive: 35.5 µM [inhibitor, single point]"},
      {"smiles": "Fc1ccccc1-c1nnc(SCc2cn3ccccc3n2)n1C1CC1", "Potency": "inconclusive: 79.4 µM [inhibitor, single point]"},
      {"smiles": "CCCOC(=O)c1c(-c2ccc(OC)cc2)csc1NC(=O)c1ccoc1C", "Potency": "inconclusive: 39.8 µM [inhibitor, partial curve, poor fit]"},
      {"smiles": "Cc1ccccc1OCC(O)Cn1c(Br)nc2c1c(=O)[nH]c(=O)n2C", "note": "(stereo not given)", "activity change, negative = inhibition": "inactive: 245%"},
      {"smiles": "Cc1nn(-c2ccccc2)cc1C(c1c(N)[nH]c(=S)[nH]c1=O)c1c(N)[nH]c(=S)[nH]c1=O", "Potency": "active: 6.31 µM"},
      {"smiles": "CCOc1ccc(N(CC(=O)Nc2ccc(F)cc2F)S(=O)(=O)c2c(C)[nH]c(=O)[nH]c2=O)cc1", "Potency": "inconclusive: 56.2 µM [inhibitor, partial curve, poor fit]"},
      {"smiles": "CCc1noc(C)c1C(=O)Nc1ccc(F)c(F)c1F", "Potency": "inconclusive: 56.2 µM [inhibitor, partial curve, poor fit]"},
      {"smiles": "Cc1ccc(Cl)c(OCC(=O)N2CCc3ccccc3C2)c1", "Potency": "inconclusive: 79.4 µM [inhibitor, single point]"},
      {"smiles": "CCCC(=O)OCCNc1cc(SCCC(=O)OC)c2nonc2c1[N+](=O)[O-]", "Potency": "inconclusive: 8.91 µM [inhibitor, full curve]"},
      {"smiles": "O=C(NNC(=S)NCc1ccc(Cl)cc1)c1cccnc1", "activity change, negative = inhibition": "inactive: -19.2%"},
      {"smiles": "Cc1c(-c2ccc(Cl)cc2)nc2ccccc2c1C(=O)NC1CCCCCCC1", "Potency": "inconclusive: 31.6 µM [inhibitor, partial curve]"},
      {"smiles": "CCOc1ccccc1CNC(=O)c1cc2cn(C3CCCC3)cc2s1", "Potency": "inconclusive: 14.1 µM [inhibitor, full curve]"},
      {"smiles": "CCOC(=O)c1cccc(NC(=O)N2CC[C@@H](CC(=O)N(C)CCC#N)[C@@H](CC)C2)c1", "Potency": "inconclusive: 112 µM [inhibitor, partial curve, poor fit]"},
      {"smiles": "COc1ccc(O)c(C(=O)c2cnn(-c3ccc(Cl)cc3)c2)c1", "activity change, negative = inhibition": "inactive: -26.9%"},
      {"smiles": "COc1cc(/C=N/NC(=O)c2cccc3ccccc23)cc(OC)c1O", "Potency": "inconclusive: 44.7 µM [inhibitor, partial curve, poor fit]"},
      {"smiles": "COc1ccc(CN(CCC(c2ccc3c(c2)OCO3)c2ccccc2OC)C(C)=O)cc1", "note": "(stereo not given)", "Potency": "inconclusive: 56.2 µM [inhibitor, partial curve, poor fit]"},
      {"smiles": "CCC1(c2ccc(F)cc2)NC(=O)N(CC(=O)Nc2ccc3c(c2)OCCO3)C1=O", "note": "(stereo not given)", "Potency": "inconclusive: 141 µM [inhibitor, single point]"},
      {"smiles": "Cc1sc2nc(SCc3ccccc3)n(Cc3ccco3)c(=O)c2c1C", "activity change, negative = inhibition": "inactive: 1.62%"},
      {"smiles": "CCOCCn1c(-n2nc(C)cc2C)nc2c1c(=O)n(CCc1ccccc1)c(=O)n2C", "activity change, negative = inhibition": "inactive: -4.5%"},
      {"smiles": "O=C(O)CCCN1C(=O)/C(=C/C=C/c2ccco2)SC1=S", "Potency": "inconclusive: 35.5 µM [inhibitor, partial curve, poor fit]"},
      {"smiles": "COC(=O)C(NC=O)C(O)(C#Cc1ccccc1)C(F)(F)F", "note": "(stereo not given)", "activity change, negative = inhibition": "inactive: -25%"},
      {"smiles": "C/C(CC(=O)Nc1ccc(Cl)c(C(F)(F)F)c1)=N\\NC(=O)c1cc2ccccc2cc1O", "Potency": "inconclusive: 50.1 µM [inhibitor, partial curve, poor fit]"},
      {"smiles": "CN(C)c1nc(N)nc(COc2ccc(Cl)c3ccccc23)n1", "activity change, negative = inhibition": "inactive: -11.4%"},
      {"smiles": "O=C(COC(=O)c1cccc(C(F)(F)F)c1)c1cccc([N+](=O)[O-])c1", "Potency": "inconclusive: 44.7 µM [inhibitor, partial curve, poor fit]"},
      {"smiles": "COc1cccc([S+](=O)([O-])N2CCNc3cnc(Nc4ccc(N5CCOCC5)cc4)nc3C2)c1", "Potency": "inconclusive: 15.8 µM [inhibitor, full curve, poor fit]"},
      {"smiles": "O=C(/C=C/Nc1ccc(Cl)c(C(F)(F)F)c1)c1ccc(Br)cc1", "Potency": "inconclusive: 3.98 µM [inhibitor, full curve, poor fit]"},
      {"smiles": "O=[N+]([O-])c1ccc(C[n+]2cccc3ccccc32)cc1", "Potency": "inconclusive: 44.7 µM [inhibitor, partial curve, poor fit]"},
      {"smiles": "O=C(NC(=S)Nc1ccc(N2CCOCC2)cc1)c1ccc(Cl)cc1", "activity change, negative = inhibition": "inactive: -10.2%"},
      {"smiles": "CC(=O)Nc1ccc(N2C(=O)CC(c3ccccc3)CC2=O)cc1", "activity change, negative = inhibition": "inactive: 0%"},
      {"smiles": "COc1cccc(S(=O)(=O)N2CCCN(C)c3ccccc32)c1", "Potency": "active: 22.4 µM"},
      {"smiles": "Cc1ccc(-c2nnc(-c3ccccc3)c(-c3ccccc3)n2)cc1", "activity change, negative = inhibition": "inactive: 10.9%"},
      {"smiles": "O=C(NC(Cc1ccccc1)C(=O)Nc1ccc2c(c1)CCC2)c1ccco1", "note": "(stereo not given)", "activity change, negative = inhibition": "inactive: 6.98%"},
      {"smiles": "Cc1noc(NS(=O)(=O)c2ccc(N/C=C\\C(=O)c3ccncc3)cc2)c1C", "Potency": "inconclusive: 28.2 µM [inhibitor, partial curve, poor fit]"},
      {"smiles": "C[C@@H]1O[C@@H](Oc2c(-c3cc(O)c(O)c(O)c3)oc3cc(O)cc(O)c3c2=O)[C@H](O)[C@H](O)[C@H]1O", "Potency": "inconclusive: 4.47 µM [inhibitor, full curve]"}
    ]}
  ]
}
